Results on one sequence are retold here after paper PMC7190159, “The L motifs of two moss pentatricopeptide repeat proteins are involved in RNA editing but predominantly not in RNA recognition”.

Amino acid sequences for entries named in this document (tags omitted).
UniProt A0A2K1IWP1, entry or part of it V188N M289T V390T D420N L491N D521S V592N D623S: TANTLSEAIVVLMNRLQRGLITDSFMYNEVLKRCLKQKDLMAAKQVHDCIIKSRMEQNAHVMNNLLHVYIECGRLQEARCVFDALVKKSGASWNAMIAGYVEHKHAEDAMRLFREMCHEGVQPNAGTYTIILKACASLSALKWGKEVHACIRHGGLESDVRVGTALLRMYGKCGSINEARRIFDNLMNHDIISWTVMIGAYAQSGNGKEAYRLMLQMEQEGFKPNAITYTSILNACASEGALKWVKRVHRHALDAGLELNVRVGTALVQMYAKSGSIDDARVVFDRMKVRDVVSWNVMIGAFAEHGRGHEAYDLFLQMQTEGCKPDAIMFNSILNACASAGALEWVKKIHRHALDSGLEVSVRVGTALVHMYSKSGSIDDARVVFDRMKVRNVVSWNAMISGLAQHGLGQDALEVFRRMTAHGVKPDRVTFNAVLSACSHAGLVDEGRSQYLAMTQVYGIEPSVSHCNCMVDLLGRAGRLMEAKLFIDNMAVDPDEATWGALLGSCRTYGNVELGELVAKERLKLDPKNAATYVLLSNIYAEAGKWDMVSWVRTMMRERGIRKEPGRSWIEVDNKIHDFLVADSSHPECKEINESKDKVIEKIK

A weaker result is weaker than the reference pair of the same experiment.

The data set deals with 56ΔDYW-nad3L V188N,M289T,V390T,D420N,L491N,D521S,V592N,D623S (Physcomitrella patens) (UniProt A0A2K1IWP1). Kind of data set: EMSA. The note with it: slight decrease relative to wt, still binds; 40 mM Tris pH 8.0, 100 mM NaCl, 4 mM DTT, 0.1 mg/mL BSA, 10% glycerol, 25°C; protein 10 min, then 50 pM RNA 15 min; native 6% PAGE; recombinant protein; protein details: N-term thioredoxin, C-term 6xHis, V5 epitope; label: 5'-32P.

As for “AUUUUUAUAUAGGUAUAGACGGUAUCUCUUCAUUUU [nad4-edit]”, the binding result was “binds more weakly”.
